We go through 52 compounds from PubChem BioAssay AID602441 (National Center for Advancing Translational Sciences (NCATS), 2012).

Each structure is given as a SMILES string. In all, about 1,300 compounds went through this assay and fewer than 10 were called active. About 9% were inconclusive and are not listed. Calls follow the shape of the dose curve; as a rule, active = well fitted curve in the direction sought with a large enough effect; inconclusive = small, poorly fitted or top-dose-only effect, or another doubt; inactive = no such curve, though single readings can be large or run the other way. Some of the results follow.

A short description of the test: qHTS for antagonists of the Thyroid Stimulation Hormone Receptor: Hit Validation in Parental Cell Line. Also: 0% is about no effect. To be noted: parental HEK293 cells lacking TSHR, counter-screen; series mostly up to 56.9 µM; activity change, negative = inhibition: at the top concentration. In short, it runs like this: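 Counterscreen in untransfected parental HEK-EM 293 cells. Lysate cAMP displaces cAMP-d2 from cryptate-tagged anti-cAMP antibody, and homogeneous TR-FRET is read at 665 nm with 337 nm excitation after stimulation.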
On to `COc1cccc(OC)c1C(=O)Nc1ccc2c(c1)N(S(=O)(=O)c1cccs1)CCC2`, for which the “activity change, negative = inhibition” value was inactive: 1.27%.

As for `CCOc1cc(/C=C/c2ccc3cccc([N+](=O)[O-])c3n2)ccc1OCC(=O)N(C)C`, the “activity change, negative = inhibition” value is inactive: 0.169%.

`COc1ccc(NC(=O)c2c(F)cccc2F)cc1S(=O)(=O)Nc1ccc(Br)cc1`: the “activity change, negative = inhibition” value was inactive: -1.38%. Then `CS(=O)(=O)c1ncc(Cl)c(C(=O)Nc2ccc3ccccc3c2)n1`, with inactive: 2.52%; and `CCOC(=O)COc1ccc(Br)cc1/C=C/c1[nH]c(=O)[nH]c(=O)c1[N+](=O)[O-]`, with inactive: -4.09%. The value for `CC(C)(C)c1cc2nc3c(c(=O)n2[nH]1)CN(Cc1ccccc1)C3=O` was inactive: -3.97%; that for `COc1ccc(-c2nc(NC(=O)c3cc(C(C)(C)C)nn3C)sc2C)cc1` was inactive: -7.16%; that for `N#C/C(=N\Nc1ccc(S(=O)(=O)N2CCCCCC2)cc1)C(N)=S` was inactive: -4.32%. Then `N#C/C(=C\c1ccc(O)c([N+](=O)[O-])c1)c1nc2ccccc2s1`, with inactive: -1.07%; and `Cc1ccc(CNC(=O)CSc2nnc3c(n2)[nH]c2ccccc23)cc1`, with inactive: 5.85%. In the case of `Cc1ccccc1NC(=O)Cc1nc(COC(=O)c2cccc([N+](=O)[O-])c2)cs1`, the “activity change, negative = inhibition” value was inactive: 2.5%.

Consider `Cc1cccc(N2CCN(C(=O)C3(S(=O)(=O)c4ccc(Cl)cc4)CC3)CC2)c1C`, for which the “activity change, negative = inhibition” value was inactive: 0.394%. The value for `O=C(COc1ccc(Cl)cc1)Nc1ncc([N+](=O)[O-])s1` was inactive: -4.58%; that for `Cc1nn(S(=O)(=O)c2ccc(F)cc2)c(C)c1S(=O)(=O)N1CCOCC1` was inactive: 1.2%. Then `COc1cc(C(C(=O)NCc2ccccc2)N(C(=O)c2snc(C(N)=O)c2N)C2CCCC2)cc(OC)c1OC` (configuration not stated), with inactive: 4.33%; and `COc1ccc(NC2CCCN(C(=O)CCc3cccc(F)c3)C2)cc1` (configuration not stated), with inactive: 2.4%; and `Cc1nn(-c2nc3ccccc3s2)c(N)c1-c1ccccc1`, with inactive: -9.47%. Regarding `CC1Cc2ccccc2N1C(=O)COC(=O)/C=C/c1ccc(F)cc1` (configuration not stated), the “activity change, negative = inhibition” value is inactive: 3.96%. For the compound `O=C(N=C1SC2CS(=O)(=O)CC2N1c1ccc(F)cc1)C1CC1` (configuration not stated), the “activity change, negative = inhibition” value is inactive: 4.97%.

As for `Cc1nn(Cc2ccc(Cl)cc2)c(C)c1NC(=O)c1noc2c1CCc1ccccc1-2`, the “activity change, negative = inhibition” value was inactive: -0.224%. The value for `Cc1ccc(N2CCN(S(=O)(=O)c3ccc(F)cc3)CC2)c(C)c1` was inactive: 5.16%; that for `CCNC(=O)c1ccccc1NC(=O)C1CC(=O)N(C(C)C)C1` (configuration not stated) was inactive: 5.32%; that for `COc1cccc(-c2cc(C(=O)Nc3ccn(Cc4ccc(C)cc4)n3)no2)c1` was inactive: 0.598%.

Regarding `O=[N+]([O-])c1cc(Br)c(O)c(C=Nc2ccc(N3CCOCC3)cc2)c1`, the “activity change, negative = inhibition” value was inactive: 2.6%. As for `Cn1c(=O)c([N+](=O)[O-])c(Cl)c2ccccc21`, the “activity change, negative = inhibition” value is inactive: -7.43%.

`COc1ccc(OCC(=O)NNC(=O)C2CCN(c3ncnc4sc(C)c(C)c34)CC2)cc1`: the “activity change, negative = inhibition” value was inactive: 1.9%. The value for `CC(Oc1ccc(Cl)cc1Cl)C(=O)Nc1cccnc1` (configuration not stated) was inactive: 2.55%; that for `C=CCN1C=CC(=C/C=C(/C#N)C(=O)OCC)C=C1` was inactive: 1.54%; that for `CCSCCc1nnc(NC(=O)Nc2cccc(C(F)(F)F)c2)s1` was inactive: -0.944%. Then `O=C(NCCS(=O)(=O)N1CCN(c2ccccc2)CC1)C1CC(=O)N(c2ccccc2)C1` (configuration not stated), with inactive: 1.36%; and `CC(=O)N1c2ccc(S(=O)(=O)N3CCC(C(=O)NC(C)c4ccccc4)CC3)cc2CC1C` (configuration not stated), with inactive: 5.39%; and `Cc1ccc(CCNC(=O)C2CC(c3cc(C(F)(F)F)cc(C(F)(F)F)c3)=NO2)cc1` (configuration not stated), with inactive: 3.88%.

Consider `O=C(c1ccc2c(c1)OCO2)N1CCN(S(=O)(=O)c2ccc(Cl)cc2)CC1`, for which the “activity change, negative = inhibition” value was inactive: 2.44%.

Consider `C=C(C)C1CCC(C)=C1COC(=O)Nc1ccccc1` (configuration not stated), for which the “activity change, negative = inhibition” value is inactive: 1.25%. The value for `CCN(C(=O)CN1C(=O)COc2ccc(S(=O)(=O)N3CCOCC3)cc21)c1ccc(OC)cc1` was inactive: 3.9%.

On to `Cc1ccc(CN2CCc3c(OCc4ccc(F)cc4)cccc3C2=O)cc1`, for which the “activity change, negative = inhibition” value is inactive: -2.57%. `CCSc1nsc(NC(=O)Nc2cccc(OC)c2)n1`: the “activity change, negative = inhibition” value was inactive: -9.5%. Then `CCCCc1c(C)nc2nc(SCc3ccc(Cl)cc3)[nH]n2c1=O`, with inactive: -0.616%; and `CCc1ccc(-c2nc(SCC(=O)NC3CCCC3)n[nH]2)cc1`, with inactive: 0.958%; and `N#Cc1ccc(CN2CCN(C(=O)c3ccc(S(=O)(=O)N4CCCCCC4)cc3)CC2)cc1`, with inactive: -5.72%. The value for `COc1ccc(-c2c(C(F)(F)F)[nH]n3c(=O)cc(-c4ccccc4)nc23)cc1` was inactive: -6.45%; that for `Cn1c(N)c(Sc2ccccc2[N+](=O)[O-])c(=O)n(C)c1=O` was inactive: 4.24%.

Turning to `O=C(OCCN1C(=O)c2cccc3c(N4CCOCC4)ccc(c23)C1=O)c1cccc(Cl)c1`, the “activity change, negative = inhibition” value was inactive: 0.616%. As to `Oc1ccc(N=Nc2nccs2)c(O)c1`, the “activity change, negative = inhibition” value is inactive: -1.15%. The value for `CC1SCC(=NOCc2ccccc2)CS1` (configuration not stated) was inactive: 5.41%; that for `CC(=O)c1cccc(NC(=O)CCCSc2ccccc2)c1` was inactive: -0.783%.

As for `CC1=C(C(=O)OC(C)(C)C)C(c2ccc3ccccc3c2)NC(=O)N1C` (configuration not stated), the “activity change, negative = inhibition” value is inactive: 5.33%.

On to `Cc1cccc(OCc2nnc(SCC(=O)N3c4ccccc4CCc4ccccc43)o2)c1`, for which the “activity change, negative = inhibition” value is inactive: 4.76%. Then `Cc1cc2oc(=O)cc(CSc3nnc(-c4cccs4)o3)c2cc1C(C)C`, with inactive: -4.67%; and `O=C(NCCc1ccccc1)c1cccnc1N1CCCCCC1`, with inactive: 0.822%; and `O=c1cc(C(F)(F)F)[nH]c2ccc(OC(F)(F)F)cc12`, with inactive: 4.01%. In the case of `O=c1c(Sc2ccccc2)c(C(F)(F)F)[nH]n1-c1ccccc1`, the “activity change, negative = inhibition” value is inactive: -5.39%.
